According to PMC9613699:
These are yes or no findings as the source states them, for the method shown. In cells and extracts the contact can be indirect. Some results given as binding are weak or reduced against the parent protein; the word gives no strength. For part of these data: Where a sequence is shown, tags or fusion partners need not be part of it.

Amino acid sequences for entries named in this document (tags omitted). Residues count along the entry.
UniProt Q9NZQ7, residues 19-290: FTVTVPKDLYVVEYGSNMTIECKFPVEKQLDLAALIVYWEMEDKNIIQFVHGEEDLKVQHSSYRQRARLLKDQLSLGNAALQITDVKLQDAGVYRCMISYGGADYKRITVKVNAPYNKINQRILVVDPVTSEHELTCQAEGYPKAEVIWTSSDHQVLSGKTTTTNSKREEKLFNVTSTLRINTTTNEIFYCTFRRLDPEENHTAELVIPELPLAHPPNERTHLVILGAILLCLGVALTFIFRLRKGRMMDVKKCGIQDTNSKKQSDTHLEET

What was measured:
[1] = molecular target: T1, Flag-B4GALT1 (beta-1,4-galactosyltransferase 1) (UniProt P15291); test: co-IP; HEK293T lysates (50 mM Tris-HCl pH 7.4, 150 mM NaCl, 1 mM EDTA, 1% TritonX-100) incubated with anti-Flag M2 Affinity Gel at 4 C overnight; washed (50 mM Tris-HCl pH 7.5, 150 mM NaCl, 0.5% TritonX-100, 10% glycerol); eluate analysed by western blot
T1 sequence: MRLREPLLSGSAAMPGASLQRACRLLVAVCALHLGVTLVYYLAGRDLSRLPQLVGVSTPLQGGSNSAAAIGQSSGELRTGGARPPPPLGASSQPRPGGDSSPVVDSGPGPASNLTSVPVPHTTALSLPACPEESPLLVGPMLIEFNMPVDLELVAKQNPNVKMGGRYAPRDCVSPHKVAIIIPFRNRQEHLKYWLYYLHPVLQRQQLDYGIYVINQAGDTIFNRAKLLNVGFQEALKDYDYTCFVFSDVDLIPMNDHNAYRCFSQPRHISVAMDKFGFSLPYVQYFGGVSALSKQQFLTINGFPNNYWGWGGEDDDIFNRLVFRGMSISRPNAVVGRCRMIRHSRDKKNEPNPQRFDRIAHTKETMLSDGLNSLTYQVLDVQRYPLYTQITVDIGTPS

[2] = molecular target: PD-L1-3×FLAG (programmed death ligand 1) (UniProt Q9NZQ7); test: as above
[3] = molecular target: PD-L1 (programmed death ligand 1), endogenous in TNBC cells (human (endogenous in HCC1937 and MDA-MB-231)) (UniProt Q9NZQ7); test: proximity ligation; PLA in situ in HCC1937 and MDA-MB-231 cells, endogenous proteins

**Q.** “PD-L1 (programmed death ligand 1), untagged, expressed from pCDH-PD-L1 (from UniProt Q9NZQ7 19-290)” was tested. Which binding [1] did it give?
**A.** binds

B1: beta-1,4-galactosyltransferase 1 (B4GALT1), endogenous in HEK293T (enzyme, UniProt P15291 1-398)
chain: MRLREPLLSGSAAMPGASLQRACRLLVAVCALHLGVTLVYYLAGRDLSRLPQLVGVSTPLQGGSNSAAAIGQSSGELRTGGARPPPPLGASSQPRPGGDSSPVVDSGPGPASNLTSVPVPHTTALSLPACPEESPLLVGPMLIEFNMPVDLELVAKQNPNVKMGGRYAPRDCVSPHKVAIIIPFRNRQEHLKYWLYYLHPVLQRQQLDYGIYVINQAGDTIFNRAKLLNVGFQEALKDYDYTCFVFSDVDLIPMNDHNAYRCFSQPRHISVAMDKFGFSLPYVQYFGGVSALSKQQFLTINGFPNNYWGWGGEDDDIFNRLVFRGMSISRPNAVVGRCRMIRHSRDKKNEPNPQRFDRIAHTKETMLSDGLNSLTYQVLDVQRYPLYTQITVDIGTPS
**Q.** With B1 as the molecule, how does the binding [2] read?
**A.** binds

B2: beta-1,4-galactosyltransferase 1 (B4GALT1), endogenous in TNBC cells (enzyme, UniProt P15291 1-398)
chain: MRLREPLLSGSAAMPGASLQRACRLLVAVCALHLGVTLVYYLAGRDLSRLPQLVGVSTPLQGGSNSAAAIGQSSGELRTGGARPPPPLGASSQPRPGGDSSPVVDSGPGPASNLTSVPVPHTTALSLPACPEESPLLVGPMLIEFNMPVDLELVAKQNPNVKMGGRYAPRDCVSPHKVAIIIPFRNRQEHLKYWLYYLHPVLQRQQLDYGIYVINQAGDTIFNRAKLLNVGFQEALKDYDYTCFVFSDVDLIPMNDHNAYRCFSQPRHISVAMDKFGFSLPYVQYFGGVSALSKQQFLTINGFPNNYWGWGGEDDDIFNRLVFRGMSISRPNAVVGRCRMIRHSRDKKNEPNPQRFDRIAHTKETMLSDGLNSLTYQVLDVQRYPLYTQITVDIGTPS
**Q.** B2 was tested. Which binding [3] did it give?
**A.** binds
